± gives the standard deviation of the averaged measurements. The list shows a part of the results, in another mix than the full data. Small differences around the control level are noise.

The chains behind the UniProt entries cited, without tags or fusion partners. Where a name states a change or a piece, a line headed by the entry shows the natural chain unless it says otherwise.
UniProt Q7Z4G1, whole entry: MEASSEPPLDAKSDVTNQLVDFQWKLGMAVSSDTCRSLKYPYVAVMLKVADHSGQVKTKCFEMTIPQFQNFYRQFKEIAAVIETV
UniProt Q6P4I2: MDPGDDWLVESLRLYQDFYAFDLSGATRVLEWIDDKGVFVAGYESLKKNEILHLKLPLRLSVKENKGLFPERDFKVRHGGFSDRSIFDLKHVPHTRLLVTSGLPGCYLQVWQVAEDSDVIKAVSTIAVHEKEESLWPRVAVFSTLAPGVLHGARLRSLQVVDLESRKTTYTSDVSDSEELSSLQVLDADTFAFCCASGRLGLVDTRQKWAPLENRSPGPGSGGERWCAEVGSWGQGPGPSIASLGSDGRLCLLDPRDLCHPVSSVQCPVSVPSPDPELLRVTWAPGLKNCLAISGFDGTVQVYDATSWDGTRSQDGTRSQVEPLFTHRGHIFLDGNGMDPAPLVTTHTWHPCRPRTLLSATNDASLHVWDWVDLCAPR
UniProt Q6FI81: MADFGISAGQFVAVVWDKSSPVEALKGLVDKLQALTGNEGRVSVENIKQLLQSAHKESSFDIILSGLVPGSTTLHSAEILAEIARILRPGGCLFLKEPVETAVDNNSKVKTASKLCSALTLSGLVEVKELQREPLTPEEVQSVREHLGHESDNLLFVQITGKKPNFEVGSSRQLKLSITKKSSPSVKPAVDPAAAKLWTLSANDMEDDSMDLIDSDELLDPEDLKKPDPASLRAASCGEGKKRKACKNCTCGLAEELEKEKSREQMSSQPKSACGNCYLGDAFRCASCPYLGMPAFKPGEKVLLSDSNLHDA
UniProt Q6UXH1: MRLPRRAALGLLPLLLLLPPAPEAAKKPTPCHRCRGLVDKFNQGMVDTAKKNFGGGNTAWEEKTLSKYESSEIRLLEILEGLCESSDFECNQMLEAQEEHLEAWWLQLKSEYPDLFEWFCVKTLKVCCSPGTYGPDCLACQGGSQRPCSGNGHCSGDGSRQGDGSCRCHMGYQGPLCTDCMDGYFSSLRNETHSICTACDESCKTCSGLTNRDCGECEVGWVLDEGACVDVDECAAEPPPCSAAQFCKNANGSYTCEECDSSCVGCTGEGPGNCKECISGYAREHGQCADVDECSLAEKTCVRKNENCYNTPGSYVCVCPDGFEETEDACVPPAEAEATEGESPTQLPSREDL
UniProt Q7LBC6: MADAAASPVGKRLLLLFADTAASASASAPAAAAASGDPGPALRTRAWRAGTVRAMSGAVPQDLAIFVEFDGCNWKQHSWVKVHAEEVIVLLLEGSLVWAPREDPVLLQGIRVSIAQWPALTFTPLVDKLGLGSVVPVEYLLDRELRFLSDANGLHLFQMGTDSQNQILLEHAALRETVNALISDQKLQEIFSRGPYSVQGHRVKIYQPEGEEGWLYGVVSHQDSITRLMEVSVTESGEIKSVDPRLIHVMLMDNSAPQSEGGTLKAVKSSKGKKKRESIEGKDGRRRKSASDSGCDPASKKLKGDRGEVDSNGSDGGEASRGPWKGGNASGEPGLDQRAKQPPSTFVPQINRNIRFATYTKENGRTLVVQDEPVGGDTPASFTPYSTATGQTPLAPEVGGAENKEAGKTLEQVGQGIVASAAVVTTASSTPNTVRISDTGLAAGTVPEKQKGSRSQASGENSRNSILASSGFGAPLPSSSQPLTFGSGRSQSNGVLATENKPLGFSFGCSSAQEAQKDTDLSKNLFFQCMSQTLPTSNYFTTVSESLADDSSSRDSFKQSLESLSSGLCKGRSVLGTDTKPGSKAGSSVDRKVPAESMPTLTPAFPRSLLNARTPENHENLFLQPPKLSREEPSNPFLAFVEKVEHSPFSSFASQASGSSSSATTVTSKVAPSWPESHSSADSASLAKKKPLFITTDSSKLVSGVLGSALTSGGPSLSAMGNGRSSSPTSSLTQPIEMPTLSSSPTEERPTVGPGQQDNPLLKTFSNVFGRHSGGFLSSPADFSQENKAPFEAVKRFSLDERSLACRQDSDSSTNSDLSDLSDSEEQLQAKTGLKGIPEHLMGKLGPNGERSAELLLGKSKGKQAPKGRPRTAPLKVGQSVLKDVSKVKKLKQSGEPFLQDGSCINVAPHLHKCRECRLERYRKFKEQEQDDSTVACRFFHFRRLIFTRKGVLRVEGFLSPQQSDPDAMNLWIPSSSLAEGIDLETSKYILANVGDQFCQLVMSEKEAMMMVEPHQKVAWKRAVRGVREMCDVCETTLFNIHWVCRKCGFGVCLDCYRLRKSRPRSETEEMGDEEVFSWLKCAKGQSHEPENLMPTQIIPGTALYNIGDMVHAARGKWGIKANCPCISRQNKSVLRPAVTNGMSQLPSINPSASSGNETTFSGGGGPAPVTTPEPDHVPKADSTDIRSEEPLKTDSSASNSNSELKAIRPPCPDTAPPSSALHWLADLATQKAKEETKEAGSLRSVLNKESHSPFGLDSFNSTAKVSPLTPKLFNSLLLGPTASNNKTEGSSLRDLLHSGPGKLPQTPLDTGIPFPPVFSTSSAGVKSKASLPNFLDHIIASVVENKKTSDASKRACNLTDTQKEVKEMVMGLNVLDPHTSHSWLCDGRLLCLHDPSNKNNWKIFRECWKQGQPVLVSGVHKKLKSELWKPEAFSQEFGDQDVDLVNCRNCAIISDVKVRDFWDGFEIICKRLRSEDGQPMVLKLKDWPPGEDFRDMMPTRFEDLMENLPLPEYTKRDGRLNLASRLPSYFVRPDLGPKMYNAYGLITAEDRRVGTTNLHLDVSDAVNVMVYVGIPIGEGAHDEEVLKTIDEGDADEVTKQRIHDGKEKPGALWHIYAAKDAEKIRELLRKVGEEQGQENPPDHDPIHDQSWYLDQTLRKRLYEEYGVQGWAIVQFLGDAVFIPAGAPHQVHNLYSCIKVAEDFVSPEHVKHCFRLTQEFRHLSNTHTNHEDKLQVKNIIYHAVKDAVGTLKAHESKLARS
UniProt Q6P2P2: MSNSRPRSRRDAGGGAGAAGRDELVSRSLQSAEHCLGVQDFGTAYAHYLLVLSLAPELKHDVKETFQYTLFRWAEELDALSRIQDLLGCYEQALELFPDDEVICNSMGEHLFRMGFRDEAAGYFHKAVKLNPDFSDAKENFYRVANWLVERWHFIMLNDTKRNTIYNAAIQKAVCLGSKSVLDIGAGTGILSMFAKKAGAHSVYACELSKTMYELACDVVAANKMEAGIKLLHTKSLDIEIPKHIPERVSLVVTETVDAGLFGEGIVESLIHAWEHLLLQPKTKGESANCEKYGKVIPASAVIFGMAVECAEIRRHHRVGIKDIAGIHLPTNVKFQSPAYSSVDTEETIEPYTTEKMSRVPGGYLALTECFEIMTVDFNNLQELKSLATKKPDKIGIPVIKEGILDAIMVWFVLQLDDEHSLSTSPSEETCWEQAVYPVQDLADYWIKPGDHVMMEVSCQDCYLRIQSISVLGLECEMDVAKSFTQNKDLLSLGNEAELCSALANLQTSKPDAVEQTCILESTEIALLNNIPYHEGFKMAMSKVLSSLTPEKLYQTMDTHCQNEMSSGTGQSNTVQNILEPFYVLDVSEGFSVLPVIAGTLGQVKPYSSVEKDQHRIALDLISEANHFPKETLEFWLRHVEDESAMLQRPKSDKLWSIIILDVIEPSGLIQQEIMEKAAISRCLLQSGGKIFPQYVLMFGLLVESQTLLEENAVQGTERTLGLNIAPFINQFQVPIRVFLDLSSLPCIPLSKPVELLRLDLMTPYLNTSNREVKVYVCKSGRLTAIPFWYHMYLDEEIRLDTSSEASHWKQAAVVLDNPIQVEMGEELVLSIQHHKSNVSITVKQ
UniProt Q7RTV0, whole entry, looked up: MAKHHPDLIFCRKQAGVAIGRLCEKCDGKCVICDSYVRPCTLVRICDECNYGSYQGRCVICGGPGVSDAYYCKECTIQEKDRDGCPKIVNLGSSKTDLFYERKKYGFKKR
UniProt Q5W0U4: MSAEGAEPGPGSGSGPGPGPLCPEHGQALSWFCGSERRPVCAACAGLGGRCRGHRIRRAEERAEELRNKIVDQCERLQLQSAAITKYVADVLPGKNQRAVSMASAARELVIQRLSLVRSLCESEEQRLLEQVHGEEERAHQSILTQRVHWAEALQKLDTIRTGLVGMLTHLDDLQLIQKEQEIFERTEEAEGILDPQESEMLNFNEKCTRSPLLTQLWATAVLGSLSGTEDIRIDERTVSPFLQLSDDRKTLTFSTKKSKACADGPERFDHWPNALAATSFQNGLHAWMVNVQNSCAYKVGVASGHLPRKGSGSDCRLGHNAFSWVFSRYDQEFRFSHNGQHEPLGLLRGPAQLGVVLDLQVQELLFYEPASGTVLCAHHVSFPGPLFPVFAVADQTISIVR
UniProt Q6PID6, whole entry: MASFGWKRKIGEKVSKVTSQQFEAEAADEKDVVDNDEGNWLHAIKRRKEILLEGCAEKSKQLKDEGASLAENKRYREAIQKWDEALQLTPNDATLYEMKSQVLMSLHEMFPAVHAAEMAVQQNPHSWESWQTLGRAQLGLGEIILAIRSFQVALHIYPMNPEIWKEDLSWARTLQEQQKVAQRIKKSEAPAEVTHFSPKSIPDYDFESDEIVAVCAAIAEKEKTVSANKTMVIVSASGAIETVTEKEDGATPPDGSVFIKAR
UniProt Q6GQQ9: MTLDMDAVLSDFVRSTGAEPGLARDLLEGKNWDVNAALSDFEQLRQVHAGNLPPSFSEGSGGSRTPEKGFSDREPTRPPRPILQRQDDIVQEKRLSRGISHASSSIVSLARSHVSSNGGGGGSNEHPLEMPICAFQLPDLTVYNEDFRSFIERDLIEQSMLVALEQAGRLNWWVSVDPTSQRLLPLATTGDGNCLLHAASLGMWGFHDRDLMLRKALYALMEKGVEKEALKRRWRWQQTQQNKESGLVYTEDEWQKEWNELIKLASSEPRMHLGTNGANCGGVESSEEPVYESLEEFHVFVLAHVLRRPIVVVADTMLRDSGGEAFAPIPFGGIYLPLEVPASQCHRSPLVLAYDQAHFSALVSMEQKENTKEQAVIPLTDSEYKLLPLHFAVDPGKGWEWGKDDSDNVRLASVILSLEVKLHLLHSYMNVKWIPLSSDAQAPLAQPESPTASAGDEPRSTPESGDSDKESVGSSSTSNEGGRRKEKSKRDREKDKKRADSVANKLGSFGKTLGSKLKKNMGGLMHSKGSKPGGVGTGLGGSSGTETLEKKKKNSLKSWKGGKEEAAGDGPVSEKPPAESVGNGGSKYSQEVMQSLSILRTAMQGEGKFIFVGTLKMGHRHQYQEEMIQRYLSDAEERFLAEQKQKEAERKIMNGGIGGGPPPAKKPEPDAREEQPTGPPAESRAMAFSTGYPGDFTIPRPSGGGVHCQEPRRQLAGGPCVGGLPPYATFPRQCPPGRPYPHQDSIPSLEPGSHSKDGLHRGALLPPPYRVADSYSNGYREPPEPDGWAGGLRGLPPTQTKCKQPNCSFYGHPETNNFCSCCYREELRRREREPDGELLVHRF
UniProt Q6PI47: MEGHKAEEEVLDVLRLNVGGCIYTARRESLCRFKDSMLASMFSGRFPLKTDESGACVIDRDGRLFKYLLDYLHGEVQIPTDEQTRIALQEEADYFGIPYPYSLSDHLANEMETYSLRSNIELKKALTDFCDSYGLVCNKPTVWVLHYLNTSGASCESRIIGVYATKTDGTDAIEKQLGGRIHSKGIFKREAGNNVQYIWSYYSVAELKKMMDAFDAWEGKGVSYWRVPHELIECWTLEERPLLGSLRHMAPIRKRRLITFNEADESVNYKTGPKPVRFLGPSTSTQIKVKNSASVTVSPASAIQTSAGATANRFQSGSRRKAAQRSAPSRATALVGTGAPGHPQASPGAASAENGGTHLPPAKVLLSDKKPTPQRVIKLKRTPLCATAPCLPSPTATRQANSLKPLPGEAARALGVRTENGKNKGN
UniProt Q71RC2, whole entry: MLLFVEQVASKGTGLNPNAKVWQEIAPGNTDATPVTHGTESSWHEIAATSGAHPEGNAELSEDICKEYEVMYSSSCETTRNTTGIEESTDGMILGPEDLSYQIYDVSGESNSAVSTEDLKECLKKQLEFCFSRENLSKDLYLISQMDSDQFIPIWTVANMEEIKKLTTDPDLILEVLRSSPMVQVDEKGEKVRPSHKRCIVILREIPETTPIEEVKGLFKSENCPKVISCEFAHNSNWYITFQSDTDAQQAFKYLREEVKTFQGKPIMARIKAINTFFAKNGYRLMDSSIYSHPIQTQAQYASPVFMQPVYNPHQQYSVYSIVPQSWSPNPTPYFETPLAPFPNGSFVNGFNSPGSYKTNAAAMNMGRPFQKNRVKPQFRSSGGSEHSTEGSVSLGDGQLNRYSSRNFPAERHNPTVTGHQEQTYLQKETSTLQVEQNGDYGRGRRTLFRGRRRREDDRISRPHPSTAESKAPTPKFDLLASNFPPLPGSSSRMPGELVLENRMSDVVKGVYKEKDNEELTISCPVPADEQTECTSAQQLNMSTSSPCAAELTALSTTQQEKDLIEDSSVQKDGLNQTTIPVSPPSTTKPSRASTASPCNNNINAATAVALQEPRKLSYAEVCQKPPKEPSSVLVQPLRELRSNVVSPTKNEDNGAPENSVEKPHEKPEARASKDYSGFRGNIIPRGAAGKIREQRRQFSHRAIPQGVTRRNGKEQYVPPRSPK

Compound in the first experiment: Nc1ncnc2c1ncn2[C@@H]1O[C@H](COP(=O)(O)OP(=O)(O)NP(=O)(O)O)[C@@H](O)[C@H]1O [adenylyl imidodiphosphate]
Nature of the experiment: NP40-soluble protein abundance relative to vehicle (solubility fold change) (ratio); higher = more soluble protein in presence of AMP-PNP. The note with it: concentration: 0.1mM. In outline: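 Each value is a fold change relative to the detergent-processed vehicle, calculated per replicate from vsn-normalised intensities. Jurkat crude lysate received eight concentrations (0.1 to 10 mM) for 10 min at room temperature and 3 min at 37 °C, then was solubilised in 0.8% NP40 with benzonase (60 min, 4 °C). The ultracentrifuged supernatant was TMT-labelled and run by LC-MS/MS in three independent experiments.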
Take UniProt Q7Z4G1 and related entries: the NP40-soluble protein abundance was 1.04 ± 0.022.
With “Q5VY60 and related entries (UniProt Q7Z4H7)”, the NP40-soluble protein abundance was 1.05 ± 0.03.
For the target UniProt Q66PJ3 and related entries, the NP40-soluble protein abundance turned out to be 1.01 ± 0.043.
Consider UniProt Q70UQ0 and related entries, for which the NP40-soluble protein abundance is 1 ± 0.075.
Take WDR73 (UniProt Q6P4I2): the NP40-soluble protein abundance came out at 0.996 ± 0.018.
Consider FAM160B1 (UniProt Q5W0V3), for which the NP40-soluble protein abundance stood at 1.02 ± 0.039.
Turning to UniProt Q6FI81 and related entries, the NP40-soluble protein abundance worked out at 0.966 ± 0.07.
Regarding UniProt Q7Z3K3 and related entries, the NP40-soluble protein abundance turned out to be 1.01 ± 0.011.
TAF3 (UniProt Q5VWG9): the NP40-soluble protein abundance was 1.01 ± 0.044.
With “Q5VYH9 and related entries (UniProt Q9HBG7)”, the NP40-soluble protein abundance came out at 1 ± 0.055.
Still for that read-out and setting: then UniProt Q6UXH1 and related entries, with 0.944 ± 0.043; and UniProt Q7LBC6, with 0.978 ± 0.026; and UniProt Q7L5Y1 and related entries, with 1.005 ± 0.007.
For the target UniProt Q6P2P2, the NP40-soluble protein abundance came to 1.01 ± 0.015.
The same measure, in the same setting: then UniProt Q5VZE5, with 0.998 ± 0.028.
UniProt Q7RTV0: the NP40-soluble protein abundance was 1.02 ± 0.083.
TTC37 (UniProt Q6PGP7): the NP40-soluble protein abundance came out at 0.849 ± 0.069.
With UniProt Q6PCB7 and related entries, the NP40-soluble protein abundance was 1.01 ± 0.054.
With CYB5R4 (UniProt Q7L1T6), the NP40-soluble protein abundance was determined as 0.984 ± 0.031.
On to UniProt Q6UW63, for which the NP40-soluble protein abundance was 0.998 ± 0.011.
In the case of UniProt Q5W0U4, the NP40-soluble protein abundance is 0.9878 ± 0.0048.
Turning to UniProt Q6ZRS2 and related entries, the NP40-soluble protein abundance was 0.976 ± 0.035.
Turning to RFWD3 (UniProt Q6PCD5), the NP40-soluble protein abundance came out at 1.003 ± 0.0027.
Still for that read-out and setting: then UniProt Q66K74 and related entries, with 1.005 ± 0.0053; and TTC33 (UniProt Q6PID6), with 0.97 ± 0.024; and UniProt Q7L1Q6, with 0.985 ± 0.04.
Still for that read-out and setting: in the case of UniProt Q68EM7-2|Q68EM7-3|Q68EM7 it was 0.99 ± 0.033.
For the target ADNP2 (UniProt Q6IQ32), the NP40-soluble protein abundance is 1.01 ± 0.024.
For the target UniProt Q7Z591 and related entries, the NP40-soluble protein abundance was determined as 0.9872 ± 0.0045.
With UniProt Q6GQQ9 and related entries, the NP40-soluble protein abundance came out at 0.9867 ± 0.0053.
For UniProt Q5VSL9, the NP40-soluble protein abundance turned out to be 0.964 ± 0.015.
Turning to UniProt Q6PI47, the NP40-soluble protein abundance came out at 0.926 ± 0.059.
Consider THOC7 (UniProt Q6I9Y2), for which the NP40-soluble protein abundance was 1.17 ± 0.038.
Turning to UniProt Q6ZMI0, the NP40-soluble protein abundance was determined as 0.982 ± 0.029.
With TTC27 (UniProt Q6P3X3), the NP40-soluble protein abundance came to 1.02 ± 0.016.
As for UniProt Q71RC2 and related entries, the NP40-soluble protein abundance amounted to 1.022 ± 0.0017.
OGFOD2 (UniProt Q6N063): the NP40-soluble protein abundance is 0.99 ± 0.076.

Still in this experiment, the particulars now being: concentration: 0.5mM.
Turning to UniProt Q7Z4G1 and related entries, the NP40-soluble protein abundance was found to be 1.03 ± 0.017.
As for “Q5VY60 and related entries (UniProt Q7Z4H7)”, the NP40-soluble protein abundance worked out at 1.03 ± 0.047.
As for UniProt Q66PJ3 and related entries, the NP40-soluble protein abundance is 1.02 ± 0.047.
Consider UniProt Q70UQ0 and related entries, for which the NP40-soluble protein abundance was found to be 0.999 ± 0.048.
In the case of WDR73 (UniProt Q6P4I2), the NP40-soluble protein abundance came to 0.963 ± 0.03.
The same measure, in the same setting: in the case of FAM160B1 (UniProt Q5W0V3) it was 1.02 ± 0.043; in that of UniProt Q6FI81 and related entries, 1.01 ± 0.063; in that of UniProt Q7Z3K3 and related entries, 1.021 ± 0.0081.
Regarding TAF3 (UniProt Q5VWG9), the NP40-soluble protein abundance stood at 1.01 ± 0.033.
As to “Q5VYH9 and related entries (UniProt Q9HBG7)”, the NP40-soluble protein abundance was determined as 0.976 ± 0.022.
For the target UniProt Q6UXH1 and related entries, the NP40-soluble protein abundance was 0.984 ± 0.04.
Consider UniProt Q7LBC6, for which the NP40-soluble protein abundance stood at 1 ± 0.04.
In the case of UniProt Q7L5Y1 and related entries, the NP40-soluble protein abundance is 0.995 ± 0.046.
For UniProt Q6P2P2, the NP40-soluble protein abundance was 1.03 ± 0.024.
Regarding UniProt Q5VZE5, the NP40-soluble protein abundance was found to be 1.03 ± 0.028.
On to UniProt Q7RTV0, for which the NP40-soluble protein abundance came out at 1.03 ± 0.056.
Consider TTC37 (UniProt Q6PGP7), for which the NP40-soluble protein abundance is 0.813 ± 0.057.
The same measure, in the same setting: then UniProt Q6PCB7 and related entries, with 1.01 ± 0.028; and CYB5R4 (UniProt Q7L1T6), with 0.9947 ± 0.0071; and UniProt Q6UW63, with 0.995 ± 0.032.
Same read-out and setting: then UniProt Q5W0U4, with 0.995 ± 0.032.
As for UniProt Q6ZRS2 and related entries, the NP40-soluble protein abundance is 1.02 ± 0.046.
Same read-out and setting: then RFWD3 (UniProt Q6PCD5), with 0.98 ± 0.013; and UniProt Q66K74 and related entries, with 1.03 ± 0.023; and TTC33 (UniProt Q6PID6), with 1 ± 0.007.
Consider UniProt Q7L1Q6, for which the NP40-soluble protein abundance worked out at 1.01 ± 0.037.
Take UniProt Q68EM7-2|Q68EM7-3|Q68EM7: the NP40-soluble protein abundance worked out at 1.01 ± 0.036.
For the target ADNP2 (UniProt Q6IQ32), the NP40-soluble protein abundance is 0.979 ± 0.042.
For the target UniProt Q7Z591 and related entries, the NP40-soluble protein abundance came to 1.01 ± 0.011.
Same read-out and setting: in the case of UniProt Q6GQQ9 and related entries it was 1.01 ± 0.021; in that of UniProt Q5VSL9, 0.976 ± 0.047.
Take UniProt Q6PI47: the NP40-soluble protein abundance was found to be 0.879 ± 0.07.
The same measure, in the same setting: then THOC7 (UniProt Q6I9Y2), with 1.25 ± 0.051; and UniProt Q6ZMI0, with 0.998 ± 0.054.
For the target TTC27 (UniProt Q6P3X3), the NP40-soluble protein abundance was found to be 0.991 ± 0.055.
As to UniProt Q71RC2 and related entries, the NP40-soluble protein abundance was 1.01 ± 0.031.
Turning to OGFOD2 (UniProt Q6N063), the NP40-soluble protein abundance stood at 0.943 ± 0.055.

(Values after the supplement of paper PMC6411743.)
